This is an account of results in patent US20150074844A1.

Protein sequences, listed by entry. Tags and fused reporters are not part of them. Lines headed by an entry give the natural chain unless they say otherwise; changes in a name come on top.
UniProt Q8VZS8: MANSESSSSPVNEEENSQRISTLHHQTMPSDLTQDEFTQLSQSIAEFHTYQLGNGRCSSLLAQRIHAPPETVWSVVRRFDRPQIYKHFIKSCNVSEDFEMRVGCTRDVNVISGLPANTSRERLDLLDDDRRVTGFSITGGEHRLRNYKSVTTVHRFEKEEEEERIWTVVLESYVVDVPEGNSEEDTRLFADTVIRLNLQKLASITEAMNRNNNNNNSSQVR
UniProt O04719: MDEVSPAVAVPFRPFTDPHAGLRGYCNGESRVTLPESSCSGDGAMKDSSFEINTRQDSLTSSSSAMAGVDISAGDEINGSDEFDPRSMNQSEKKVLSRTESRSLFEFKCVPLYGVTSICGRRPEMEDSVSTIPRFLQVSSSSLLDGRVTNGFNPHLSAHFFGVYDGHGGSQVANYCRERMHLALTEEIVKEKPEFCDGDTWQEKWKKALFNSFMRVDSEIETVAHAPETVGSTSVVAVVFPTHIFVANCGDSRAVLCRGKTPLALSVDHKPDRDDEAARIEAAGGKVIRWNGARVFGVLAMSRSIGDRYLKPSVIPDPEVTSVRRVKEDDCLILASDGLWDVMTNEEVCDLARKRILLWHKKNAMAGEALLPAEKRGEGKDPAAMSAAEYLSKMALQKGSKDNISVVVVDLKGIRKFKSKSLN

Assay [1] concerns the target T1, ABI1 fused to the GAL4-activating domain (AD) (Arabidopsis), P49597.
T1 chain: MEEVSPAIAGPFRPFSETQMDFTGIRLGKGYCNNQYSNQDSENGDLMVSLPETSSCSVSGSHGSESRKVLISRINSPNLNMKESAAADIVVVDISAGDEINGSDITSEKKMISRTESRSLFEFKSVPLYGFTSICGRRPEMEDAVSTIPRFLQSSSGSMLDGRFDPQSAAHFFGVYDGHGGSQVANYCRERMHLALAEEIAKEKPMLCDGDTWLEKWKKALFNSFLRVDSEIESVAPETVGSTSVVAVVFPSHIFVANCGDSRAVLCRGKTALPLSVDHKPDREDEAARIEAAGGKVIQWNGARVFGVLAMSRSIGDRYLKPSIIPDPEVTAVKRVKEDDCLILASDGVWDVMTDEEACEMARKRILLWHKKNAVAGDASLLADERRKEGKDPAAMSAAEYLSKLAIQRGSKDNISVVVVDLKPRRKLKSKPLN
As to the kind of experiment: yeast two-hybrid, growth on media lacking His and His/Ade, with and without ABA (ABA-independent). The conditions noted are these: remark: other sources report otherwise.

Assay [2] has as its target GST-tagged PYL1 (Arabidopsis thaliana) (UniProt Q8VZS8). As to the kind of experiment: His pull-down of purified recombinant proteins.
Assay [3] has as its target T2, GST-tagged PYL2 (Arabidopsis thaliana) (UniProt O80992).
T2 sequence: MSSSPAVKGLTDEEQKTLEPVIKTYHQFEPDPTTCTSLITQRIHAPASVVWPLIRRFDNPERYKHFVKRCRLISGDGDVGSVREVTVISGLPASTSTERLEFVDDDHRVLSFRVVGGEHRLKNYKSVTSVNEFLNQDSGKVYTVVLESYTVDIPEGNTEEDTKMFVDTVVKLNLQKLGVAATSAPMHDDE
Kind of assay: His pull-down of purified recombinant proteins.

The target in assay [4] is ABI2 without tag (purified recombinant) (Arabidopsis) (UniProt O04719). Kind of assay: His pull-down of purified recombinant proteins, SDS-PAGE/Coomassie, with or without 200 µM ABA.
For assay [5], the target named is T3, AHG1 without tag (purified recombinant) (Arabidopsis) (UniProt Q9FLI3).
T3 sequence (looked up): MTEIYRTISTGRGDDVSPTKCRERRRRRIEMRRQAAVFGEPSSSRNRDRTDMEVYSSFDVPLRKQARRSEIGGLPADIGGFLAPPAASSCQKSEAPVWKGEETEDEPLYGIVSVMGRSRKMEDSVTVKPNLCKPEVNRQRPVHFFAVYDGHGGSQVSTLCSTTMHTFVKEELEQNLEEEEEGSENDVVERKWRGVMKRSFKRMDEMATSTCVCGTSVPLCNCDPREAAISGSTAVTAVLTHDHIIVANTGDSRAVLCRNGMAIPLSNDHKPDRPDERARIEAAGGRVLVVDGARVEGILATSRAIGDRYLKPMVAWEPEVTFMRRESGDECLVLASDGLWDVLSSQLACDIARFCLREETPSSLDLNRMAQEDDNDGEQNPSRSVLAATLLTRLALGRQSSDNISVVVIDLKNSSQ
The description is as above.

Assay [6] has as its target T4, PP2CA without tag (purified recombinant) (Arabidopsis) (UniProt P49598).
T4 sequence (looked up): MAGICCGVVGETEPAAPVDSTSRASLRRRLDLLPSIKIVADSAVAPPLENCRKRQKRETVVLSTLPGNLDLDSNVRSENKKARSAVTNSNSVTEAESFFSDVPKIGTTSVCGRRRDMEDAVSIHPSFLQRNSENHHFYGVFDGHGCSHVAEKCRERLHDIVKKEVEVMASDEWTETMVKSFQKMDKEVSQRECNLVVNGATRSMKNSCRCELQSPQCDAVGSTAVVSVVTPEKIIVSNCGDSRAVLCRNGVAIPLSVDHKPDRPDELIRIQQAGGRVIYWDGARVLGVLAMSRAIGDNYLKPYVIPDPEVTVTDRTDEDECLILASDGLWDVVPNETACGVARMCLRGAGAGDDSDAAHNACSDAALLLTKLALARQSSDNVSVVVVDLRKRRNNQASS
The description is as above.

Assay [7] has as its target T5, ABI1 without tag (purified recombinant) (Arabidopsis), P49597.
T5 chain: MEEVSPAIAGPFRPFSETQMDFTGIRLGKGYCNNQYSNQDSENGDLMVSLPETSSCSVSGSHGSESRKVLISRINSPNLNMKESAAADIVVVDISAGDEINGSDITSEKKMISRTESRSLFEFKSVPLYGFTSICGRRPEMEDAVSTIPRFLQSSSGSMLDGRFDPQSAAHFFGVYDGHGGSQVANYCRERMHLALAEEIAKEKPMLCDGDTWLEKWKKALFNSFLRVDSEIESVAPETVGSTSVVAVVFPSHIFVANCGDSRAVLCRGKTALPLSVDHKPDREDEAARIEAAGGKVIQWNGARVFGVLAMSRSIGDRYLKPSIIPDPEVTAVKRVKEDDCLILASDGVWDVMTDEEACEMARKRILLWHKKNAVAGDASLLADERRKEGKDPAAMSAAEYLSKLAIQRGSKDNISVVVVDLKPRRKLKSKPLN
Described as above. Conditions: remark: other sources report otherwise.

Assay [8] has as its target T6, ABI1-HA (Arabidopsis), P49597.
T6 chain: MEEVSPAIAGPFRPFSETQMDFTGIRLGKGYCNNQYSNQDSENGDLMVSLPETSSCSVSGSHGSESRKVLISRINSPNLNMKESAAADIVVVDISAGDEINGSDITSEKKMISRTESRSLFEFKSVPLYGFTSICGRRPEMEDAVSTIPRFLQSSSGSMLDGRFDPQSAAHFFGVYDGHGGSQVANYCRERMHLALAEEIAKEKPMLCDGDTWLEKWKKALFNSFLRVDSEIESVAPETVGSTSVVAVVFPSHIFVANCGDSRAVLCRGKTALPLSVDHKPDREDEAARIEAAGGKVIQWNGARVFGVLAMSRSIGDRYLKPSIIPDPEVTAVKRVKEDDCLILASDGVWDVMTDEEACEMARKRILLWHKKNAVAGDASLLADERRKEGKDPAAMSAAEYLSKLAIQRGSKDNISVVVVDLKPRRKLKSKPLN
Kind of assay: co-IP from protoplasts with anti-HA agarose, western blot; with or without 10 µM ABA. The conditions noted are these: remark: other sources report otherwise. (In general: Immunoblotting shows a protein as a band on a membrane.)

Results are given in words; binding and its absence hold for the method and conditions named. For some assays here: Binding seen in cells or lysates may run through a third protein. Some results given as binding are weak or reduced against the parent protein; the word gives no strength. Where a sequence is shown, tags or fusion partners need not be part of it.

B1: PYL13 fused to the GAL4-DNA-binding domain (BD), Q9SN51 1-164 (protein, not shown: small tags and cut ends)
chain: MESSKQKRCRSSVVETIEAPLPLVWSILRSFDKPQAYQRFVKSCTMRSGGGGGKGGEGKGSVRDVTLVSGFPADFSTERLEELDDESHVMVVSIIGGNHRLVNYKSKTKVVASPEDMAKKTVVVESYVVDVPEGTSEEDTIFFVDNIIRYNLTSLAKLTKKMMK
As to B1, the binding result in assay [1] is “binds”.

B2: His-tagged PYL13 (protein, not shown: small tags and cut ends)
chain: MESSKQKRCRSSVVETIEAPLPLVWSILRSFDKPQAYQRFVKSCTMRSGGGGGKGGEGKGSVRDVTLVSGFPADFSTERLEELDDESHVMVVSIIGGNHRLVNYKSKTKVVASPEDMAKKTVVVESYVVDVPEGTSEEDTIFFVDNIIRYNLTSLAKLTKKMMK
As to B2, the binding result in assay [2], in assay [3], in assay [4], in assay [5] and in assay [6] was “binds” each time.

B3: His-tagged PYL13, Q9SN51 1-164 (protein, not shown: small tags and cut ends)
chain: MESSKQKRCRSSVVETIEAPLPLVWSILRSFDKPQAYQRFVKSCTMRSGGGGGKGGEGKGSVRDVTLVSGFPADFSTERLEELDDESHVMVVSIIGGNHRLVNYKSKTKVVASPEDMAKKTVVVESYVVDVPEGTSEEDTIFFVDNIIRYNLTSLAKLTKKMMK
Consider B3, for which, in assay [7], the binding result is listed as “binds”.

B4: c-myc-tagged PYL13, Q9SN51 1-164 (protein, not shown: small tags and cut ends)
chain: MESSKQKRCRSSVVETIEAPLPLVWSILRSFDKPQAYQRFVKSCTMRSGGGGGKGGEGKGSVRDVTLVSGFPADFSTERLEELDDESHVMVVSIIGGNHRLVNYKSKTKVVASPEDMAKKTVVVESYVVDVPEGTSEEDTIFFVDNIIRYNLTSLAKLTKKMMK
In the case of B4, the binding result in assay [8] is “binds”.
